Our source for the binding values is paper PMC10164577.

Sequences of proteins named here, by UniProt entry; tags and fusion partners are left off.
UniProt P15873: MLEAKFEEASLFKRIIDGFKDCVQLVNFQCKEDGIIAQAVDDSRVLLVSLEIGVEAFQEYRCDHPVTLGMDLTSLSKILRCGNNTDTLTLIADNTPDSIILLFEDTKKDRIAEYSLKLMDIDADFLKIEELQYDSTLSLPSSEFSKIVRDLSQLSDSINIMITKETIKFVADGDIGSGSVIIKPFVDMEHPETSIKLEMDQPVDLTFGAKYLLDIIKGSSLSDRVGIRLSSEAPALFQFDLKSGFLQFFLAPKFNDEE

Experiment [1] deals with Proliferating Cell Nuclear Antigen (PCNA), wild type (yeast) (UniProt P15873). Put plainly: SEC; as the PCNA-CAF-1 SEC experiment but in the absence of DNA (Supplementary Figures S1E, S3B); both purified. A general note: Size exclusion chromatography separates by hydrodynamic size, large species first.
The target is the same in experiment [2]. The experiment can be described thus: condition: only ATP omitted, PCNA not loaded onto DNA; SEC; as the PCNA-CAF-1 SEC experiment with nicked plasmid but ATP omitted, so that PCNA is not loaded onto DNA (Figure 1C); both purified.

These are yes or no findings as the source states them, for the method shown.

On to “Chromatin Assembly Factor-1 (CAF-1), wild type (from UniProt Q12495 1-606; Q04199 1-468; P13712 1-422) (complex)”, for which the results for the binding entry in experiment [1] and in experiment [2] were “no binding (condition: in the absence of DNA)” and “no binding”, respectively.
